The source of these data is US20240309093A1.

In this assay the target is recombinant monkey PD-1-his protein (monkey). Kind of assay: ELISA; PD-1-his coated 2 µg/mL, anti-human IgG-HRP. Background: In an ELISA, binding on a coated surface is turned into a signal by an enzyme label.

Results are given in words; binding and its absence hold for the method and conditions named. Binding can be weak; no strength is given. Tags and fused reporters may be left off the sequences shown.

B1: MHPD1-A Fc (Fc fusion, not shown: a dimerising Fc or GST)
chain: QVQLVESGGGSVQVGGSLTLSCAASGSDPSIYAMGWFRQAPGKEHEFVAGIGWSAATTYYADSVKGRFGISRDNTKNTVALLMNSLKPEDTAIYYCAADLDHSGFDYWGQGTQVTVSS
On to B1, for which the binding entry was “binds”.
